This note sets out measurements from article PMC6838091.

The chains behind the UniProt entries cited, without tags or fusion partners. Where a name states a change or a piece, a line headed by the entry shows the natural chain unless it says otherwise.
UniProt P23359: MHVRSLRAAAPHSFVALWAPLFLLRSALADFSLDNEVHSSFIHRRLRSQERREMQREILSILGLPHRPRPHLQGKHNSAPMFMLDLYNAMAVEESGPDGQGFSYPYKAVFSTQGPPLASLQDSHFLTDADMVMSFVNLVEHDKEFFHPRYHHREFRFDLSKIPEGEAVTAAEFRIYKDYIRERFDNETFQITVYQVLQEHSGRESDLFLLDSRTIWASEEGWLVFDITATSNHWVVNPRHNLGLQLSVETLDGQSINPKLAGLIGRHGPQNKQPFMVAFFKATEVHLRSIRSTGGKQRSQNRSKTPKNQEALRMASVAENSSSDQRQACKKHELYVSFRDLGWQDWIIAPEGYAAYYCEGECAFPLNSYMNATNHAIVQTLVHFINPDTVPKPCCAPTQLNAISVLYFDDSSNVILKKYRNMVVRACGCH

The assay deals with T1, SPARC-like protein 1 (SPARCL1) (mouse (endogenous in C2C12)) (UniProt P70663).
T1 sequence: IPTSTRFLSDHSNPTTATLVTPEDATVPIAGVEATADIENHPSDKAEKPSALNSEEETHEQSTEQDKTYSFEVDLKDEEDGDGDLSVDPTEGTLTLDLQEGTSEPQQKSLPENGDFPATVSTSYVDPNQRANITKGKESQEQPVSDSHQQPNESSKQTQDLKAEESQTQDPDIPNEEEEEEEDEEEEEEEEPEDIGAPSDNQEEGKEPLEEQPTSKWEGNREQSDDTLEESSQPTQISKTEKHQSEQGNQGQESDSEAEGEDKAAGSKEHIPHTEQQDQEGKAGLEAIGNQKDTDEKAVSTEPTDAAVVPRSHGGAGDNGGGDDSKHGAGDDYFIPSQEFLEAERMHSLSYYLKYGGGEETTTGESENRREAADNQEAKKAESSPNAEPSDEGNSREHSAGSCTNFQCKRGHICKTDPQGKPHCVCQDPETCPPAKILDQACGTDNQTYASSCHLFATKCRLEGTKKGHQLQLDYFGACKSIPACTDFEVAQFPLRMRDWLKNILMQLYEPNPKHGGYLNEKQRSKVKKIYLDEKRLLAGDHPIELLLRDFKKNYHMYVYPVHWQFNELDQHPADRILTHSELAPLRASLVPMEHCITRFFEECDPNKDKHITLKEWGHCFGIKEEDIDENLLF
The experiment in a line: co-IP; endogenous proteins of C2C12 cells induced to differentiate for 72 h; precipitated in turn with SPARCL1 and BMP7 primary antibodies, IgG as negative control, Input as positive control; detected by immunoblot; buffer and conditions of the co-IP not told. Background: A western blot detects proteins with antibodies after separation by electrophoresis.

Results are given in words; binding and its absence hold for the method and conditions named. In cells and extracts the contact can be indirect. A result given as binding can be weak or reduced; the word gives no strength.

Consider “bone morphogenetic protein 7 (BMP7) (from UniProt P23359)”, for which the binding entry is listed as “binds”.
